These are yes or no findings as the source states them, for the method shown. Binding can be weak; no strength is given.

The target in the assay is purified glycoprotein Ib (GPIb). As to the kind of experiment: overlapping vWf 10-mer L-peptide array on cellulose membrane probed with purified GPIb, anti-GPIb-HRP.

With SHAYIGLKDR [L-brown], the binding result was “binds”.
For EVLKYTLFQI [L-black] the value was “binds”.
